Measurements reported in PubChem BioAssay AID686943 (Drosophila RNAi Screening Center, 2013)
In all, the deposit lists about 23,000 reagents; shown is an unselected part of those with a known target gene and a result. 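Extra replicates exist only for a retested subset of genes; insulin dose and duration not given; both raised and lowered dpERK matter.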 Names joined by + are all predicted targets of the reagent. Further read-outs or replicates are left out here. Not given: the amount of reagent, the time to read-out.

- Screen: 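Knockdowns that increase or decrease active ERK after insulin receptor stimulation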 (primary screen)
- Cell system: Drosophila S2R+ haemocyte-like cells expressing YFP-tagged ERK (Rolled)
- Knock-down reagent: long dsRNA against Drosophila genes
- Challenge: insulin stimulation versus unstimulated cells; dose and duration not given
- Detection: 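Antibody staining for doubly phosphorylated ERK divided by ERK-YFP signal, as plate z-scores, in insulin-treated and untreated cells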
- Reading the numbers: replicate 1, z-score of dpERK with insulin: higher = more active ERK per ERK-YFP after insulin

For RIC-3 [DRSC04243], what was measured?
replicate 1, z-score of dpERK with insulin: -0.16

Which result is listed for RIC-3 [DRSC04543]?
replicate 1, z-score of dpERK with insulin: -0.27

With csw [DRSC18756], what was measured?
replicate 1, z-score of dpERK with insulin: -2

Which result is listed for sti [DRSC09739]?
replicate 1, z-score of dpERK with insulin: -0.54

What is on record for sti [DRSC09740]?
replicate 1, z-score of dpERK with insulin: -0.33

How did the screen score Nse1 [DRSC02147]?
replicate 1, z-score of dpERK with insulin: -0.17

For Fst [DRSC16491], what does the deposit list?
replicate 1, z-score of dpERK with insulin: 0.04

For lectin-46Ca [DRSC06612], what does the deposit list?
replicate 1, z-score of dpERK with insulin: -0.13

Which result is listed for CG13887 [DRSC08357]?
replicate 1, z-score of dpERK with insulin: -0.42

What is on record for Art7 [DRSC04588]?
replicate 1, z-score of dpERK with insulin: -0.73

With CG11294 [DRSC17777], what does the deposit list?
replicate 1, z-score of dpERK with insulin: 0.13

For asRNA:CR43433 + Rbp6 [DRSC09464], how do the results read?
replicate 1, z-score of dpERK with insulin: 0.3

Copied from the entries so far (2 entries):
CG11294 [DRSC17777] | replicate 1, z-score of dpERK with insulin: 0.13
asRNA:CR43433 + Rbp6 [DRSC09464] | replicate 1, z-score of dpERK with insulin: 0.3
